# Percent effect of library compounds

Chains of the proteins cited; added tags and fusions are not shown. Residues count along the entry.
UniProt P9WPC5, whole entry: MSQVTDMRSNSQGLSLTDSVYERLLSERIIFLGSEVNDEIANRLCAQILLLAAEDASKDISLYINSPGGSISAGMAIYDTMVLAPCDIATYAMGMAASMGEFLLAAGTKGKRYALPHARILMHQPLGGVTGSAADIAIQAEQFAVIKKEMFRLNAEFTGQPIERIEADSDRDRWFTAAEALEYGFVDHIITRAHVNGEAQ
UniProt P9WPC3, whole entry partner: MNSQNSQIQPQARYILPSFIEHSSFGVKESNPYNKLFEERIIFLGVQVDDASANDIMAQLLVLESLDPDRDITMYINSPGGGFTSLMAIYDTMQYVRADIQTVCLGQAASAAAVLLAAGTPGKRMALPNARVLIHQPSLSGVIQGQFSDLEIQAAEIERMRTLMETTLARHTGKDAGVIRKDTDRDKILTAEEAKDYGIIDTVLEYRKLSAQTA
UniProt Q4DA54, 1-478: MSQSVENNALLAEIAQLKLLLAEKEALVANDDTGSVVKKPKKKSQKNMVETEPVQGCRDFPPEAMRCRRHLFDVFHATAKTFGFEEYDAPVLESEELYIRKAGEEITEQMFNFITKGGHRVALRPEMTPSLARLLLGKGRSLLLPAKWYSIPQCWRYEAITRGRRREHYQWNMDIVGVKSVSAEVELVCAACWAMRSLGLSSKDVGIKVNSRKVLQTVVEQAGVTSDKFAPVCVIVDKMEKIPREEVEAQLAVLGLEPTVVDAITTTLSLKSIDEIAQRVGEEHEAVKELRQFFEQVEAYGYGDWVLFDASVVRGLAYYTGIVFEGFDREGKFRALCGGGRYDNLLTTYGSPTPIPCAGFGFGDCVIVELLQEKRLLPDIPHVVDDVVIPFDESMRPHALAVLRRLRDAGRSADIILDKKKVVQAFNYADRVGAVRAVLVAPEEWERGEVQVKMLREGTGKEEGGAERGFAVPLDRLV
UniProt P9WNZ1, whole entry: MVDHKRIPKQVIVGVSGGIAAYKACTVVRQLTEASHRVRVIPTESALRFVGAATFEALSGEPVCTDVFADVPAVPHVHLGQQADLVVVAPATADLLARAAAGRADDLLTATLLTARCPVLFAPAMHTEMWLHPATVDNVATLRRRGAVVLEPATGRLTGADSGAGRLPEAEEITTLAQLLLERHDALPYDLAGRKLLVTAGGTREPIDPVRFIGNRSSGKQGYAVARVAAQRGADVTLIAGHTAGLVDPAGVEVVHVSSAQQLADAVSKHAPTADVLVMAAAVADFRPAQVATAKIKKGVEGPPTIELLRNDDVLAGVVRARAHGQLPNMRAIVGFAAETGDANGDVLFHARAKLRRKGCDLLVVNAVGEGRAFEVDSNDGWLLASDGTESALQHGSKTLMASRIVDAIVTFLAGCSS

From ChEMBL document CHEMBL3988442, “University of Dundee, Small-Polar-MMV Screening Library” (2021).

Each number is a percent effect as filed.
How 0% and 100% were set is not recorded. Most values in the screen are low, and negative values occur.
Compounds were drawn at random from those tested, without regard to their results.
A dash means the value is not listed here; it may have been measured.

ClpP1P2: 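Protease assay of ClpP1P2, read by the AMC dye that it sets free. Target: ClpP1P2, Mycobacterium tuberculosis (UniProt P9WPC5 and UniProt P9WPC3). Concentration: 50 µM. Direction is inferred from only a few compounds that gave an IC50; most scored high, so higher reads as stronger inhibition. Most other retested compounds had strongly negative values. Of about 69,000 compounds tested this way, about 10 (0.015%) reached 50% or more in at least one test.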
Toxoplasma: 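Assay of Toxoplasma gondii numbers, read through their beta-galactosidase reporter with a colour substrate. Tested at 10 µM. Higher reads as fewer parasites (inferred from which compounds were picked for retests). Of about 67,000 compounds tested this way, about 260 (0.38%) reached 50% or more in at least one test.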
Leishmania in macrophages: 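Cell assay of Leishmania donovani living inside macrophages; the read-out is not stated. Compounds at 30 µM. Direction is inferred from retests: higher values go with stronger inhibition. Of about 69,000 compounds tested this way, about 1,000 (1.5%) reached 50% or more in at least one test.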
TcHisRS: 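Histidine-tRNA ligase, Trypanosoma cruzi CL Brener (UniProt Q4DA54). Enzyme assay of histidyl-tRNA synthetase; the read-out is not stated. Tested at 30 µM. The record gives no direction; compounds that gave an IC50 in retests scored well above the rest, so higher reads as stronger inhibition. Of about 69,000 compounds tested this way, about 31 (0.045%) reached 50% or more in at least one test.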
CoaBC: 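Coenzyme A biosynthesis protein CoaBC, Mycobacterium tuberculosis (UniProt P9WNZ1). Enzyme assay of CoaBC with a phosphate dye (Biomol Green) read at 650 nm. Tested at 30 µM. Direction is inferred from only a few compounds that gave an IC50; most scored high, so higher reads as stronger inhibition. Most strong results did not repeat in a second test. About 67,000 compounds were tested under these conditions; 0.06% (about 40) showed 50% or more at least once.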

{"smiles": "O=C1NCCN(C(=O)c2cn3ccsc3n2)C1c1cccc(F)c1", "stereo": "centres unmarked", "ClpP1P2": 5.682, "Toxoplasma": -1.622, "Leishmania in macrophages": -8.348, "TcHisRS": 1.299, "CoaBC": 6.829}
{"smiles": "Cc1ccc(-c2nc(CN3CCN(CCO)CC3)co2)cc1", "ClpP1P2": -6.892, "Toxoplasma": -47.29, "Leishmania in macrophages": 20.28, "TcHisRS": 4, "CoaBC": -0.2389}
{"smiles": "CN(C)C(=O)[C@@]12CCO[C@@H]1CCN(Cc1ccc3c(c1)OCO3)C2", "ClpP1P2": 6.585, "TcHisRS": 5.556, "CoaBC": 2.927}
{"smiles": "[H][C@@]12C[C@H](C(=O)N3CCOCC3)[C@@]([H])(CN(C(=O)Nc3ccc(F)cc3)C1)O2", "Toxoplasma": 0.3326, "Leishmania in macrophages": -5.024}
{"smiles": "Cc1cc(NC(=O)CN(C)CC2CCCN2c2cccnn2)n(C)n1", "stereo": "centres unmarked", "ClpP1P2": -2.731, "Toxoplasma": -0.6967, "Leishmania in macrophages": 13.98, "TcHisRS": 0, "CoaBC": 5.556}
{"smiles": "CC1CCN(CCNC(=O)C(C)n2cncn2)CC1", "stereo": "centres unmarked", "ClpP1P2": 15.38, "Toxoplasma": -8.923, "Leishmania in macrophages": 19.17, "TcHisRS": 1.734, "CoaBC": 1.695}
{"smiles": "CC1CCN(C(=O)NCC(=O)N(C)CC(F)(F)F)C1", "stereo": "centres unmarked", "ClpP1P2": -5.137, "Toxoplasma": -10.03, "Leishmania in macrophages": -3.357, "TcHisRS": 6.931, "CoaBC": 0.9709}
{"smiles": "C[C@@H]1CN(CCC(=O)N(C)Cc2ccccc2)CC[C@@]1(O)C1CCC1", "ClpP1P2": -20.48, "Toxoplasma": -23.07, "Leishmania in macrophages": -42.91, "TcHisRS": 1.932, "CoaBC": -1.615}
{"smiles": "Cn1ccc(CN2CCC(CC(=O)N3CCCC3)CC2)cc1=O", "ClpP1P2": -6.634, "Toxoplasma": -4.975, "Leishmania in macrophages": 24.65, "TcHisRS": -12.25, "CoaBC": -6.971}
{"smiles": "Cc1cccnc1N1CC2(CCN(Cc3cnn(C)c3)C2)C1.O=C(O)C(F)(F)F.O=C(O)C(F)(F)F", "Toxoplasma": -6.546, "Leishmania in macrophages": 15.38}
{"smiles": "Cc1ccc(-c2ccnc(NC(C)c3ncc[nH]3)n2)c(C)n1", "stereo": "centres unmarked", "ClpP1P2": 3.031, "Toxoplasma": 5.995, "Leishmania in macrophages": 28.2, "TcHisRS": 0, "CoaBC": 9.636}
{"smiles": "COC(=O)c1cccc(S(=O)(=O)NC(=O)c2cccc(OC)c2OC)c1", "ClpP1P2": 7.1, "Toxoplasma": 2.31, "Leishmania in macrophages": 26.99, "TcHisRS": 3.743, "CoaBC": 0.4348}
{"smiles": "CC[C@@H]1N(Cc2ccco2)CCC[C@]12CCC(=O)N2C", "ClpP1P2": 16.57, "TcHisRS": -0.4808, "CoaBC": 2.118}
{"smiles": "N#Cc1c(F)cccc1N1CCN(S(=O)(=O)c2cccs2)CC1", "ClpP1P2": -2.272, "Toxoplasma": 0.2189, "Leishmania in macrophages": 16.93, "TcHisRS": -20.66, "CoaBC": 0.2132}
{"smiles": "Nc1ncccc1C(=O)NCc1cccc(Cl)c1", "ClpP1P2": 10.08, "Toxoplasma": 10.41, "Leishmania in macrophages": 47.38, "TcHisRS": 4.142, "CoaBC": 1.316}
{"smiles": "O=C(O)C(F)(F)F.O=C(O)C(F)(F)F.c1cnc(N2CCC3(CCN(CC4CCCC4)CC3)C2)nc1", "Toxoplasma": 3.508, "Leishmania in macrophages": 35.71}
{"smiles": "COCC(=O)NC(C)Cc1ccc(Br)cc1", "stereo": "centres unmarked", "ClpP1P2": -10.17, "Toxoplasma": 14.45, "Leishmania in macrophages": 22.51, "TcHisRS": 8.284, "CoaBC": 4.689}
{"smiles": "CN1C(=O)CN(C(=O)c2ccc(=O)n(C)c2)c2ccccc21", "ClpP1P2": -14.25, "Toxoplasma": -16.5, "Leishmania in macrophages": 5.401, "TcHisRS": 2.339, "CoaBC": 4.592}
{"smiles": "CN(Cc1ccc(N(C)C)cc1)C(=O)c1cc2c([nH]c1=O)CCCC2=O", "ClpP1P2": -16.42, "Toxoplasma": -6.444, "Leishmania in macrophages": 0.51, "TcHisRS": 7.289, "CoaBC": 3.611}
{"smiles": "Cc1cnn(C2CCCN(C(=O)c3ccnc(-n4cncn4)c3)C2)c1", "stereo": "centres unmarked", "ClpP1P2": -15.36, "Toxoplasma": -40.07, "Leishmania in macrophages": -8.453, "TcHisRS": 0.2865, "CoaBC": 7.826}
{"smiles": "CN(C)C(=O)c1cnc2n1CCN(Cc1ccsc1)C2", "ClpP1P2": -0.07626, "TcHisRS": 0.9804, "CoaBC": -0.75}
{"smiles": "CC1CCN(CC(=O)NC2CCN(C(C)c3ccccc3)CC2)CC1", "stereo": "centres unmarked", "ClpP1P2": -0.1711, "TcHisRS": 5.747, "CoaBC": 5.024}
{"smiles": "CC(Cn1ccnc1)NC(=O)NCCN1CCc2ccccc2C1", "stereo": "centres unmarked", "ClpP1P2": -3.69, "Toxoplasma": -8.846, "Leishmania in macrophages": 1.558, "TcHisRS": 3.665, "CoaBC": -11.78}
{"smiles": "O=C(CCC1CCCCC1)NS(=O)(=O)CC1CC1", "ClpP1P2": -3.989, "Toxoplasma": 9.073, "Leishmania in macrophages": -7.208, "TcHisRS": 5.464, "CoaBC": -6.601}

Some entries from above, unchanged:

| SMILES | ClpP1P2 | Toxoplasma | Leishmania in macrophages | TcHisRS | CoaBC |
|---|---|---|---|---|---|
| `CN(C)C(=O)[C@@]12CCO[C@@H]1CCN(Cc1ccc3c(c1)OCO3)C2` | 6.585 | - | - | 5.556 | 2.927 |
| `CC1CCN(C(=O)NCC(=O)N(C)CC(F)(F)F)C1` (centres unmarked) | -5.137 | -10.03 | -3.357 | 6.931 | 0.9709 |
| `[H][C@@]12C[C@H](C(=O)N3CCOCC3)[C@@]([H])(CN(C(=O)Nc3ccc(F)cc3)C1)O2` | - | 0.3326 | -5.024 | - | - |